PubChem BioAssay AID720505, Drosophila RNAi Screening Center | 2013

- Purpose: 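Genes needed for store-operated calcium entry in fly cells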 (primary screen)
- System: Drosophila S2R+ cells
- Reagent: long dsRNA against Drosophila genes
- Challenge: thapsigargin (2 µM) in calcium-free buffer to empty internal stores, then 2 mM calcium added back
- Detection: 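Stores emptied by 2 µM thapsigargin without calcium, then 2 mM calcium re-added; fluo-4 fluorescence followed by FLIPR in 384-well plates, per-well averaged endpoint, raw; two screen passes, some wells retested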
- Direction: calcium signal and retest calcium signal: higher = more calcium entry after store depletion
- Rule for the call: 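About 1500 genes called as lowering calcium entry, by varying amounts, judged against per-plate control wells with STIM1 as positive and Rho1 as negative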
- Calls: active = called as lowering calcium entry; inactive = not called
The deposit covers about 20,000 reagents; shown is an unselected part of those with a known target gene and a result. Over the whole deposit, about 2,100 (10%) were called active. 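Raw plate signals without normalisation; calls rest on control-based scores that were not deposited; replicate 2 separates called from uncalled poorly.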 Names joined by + are all predicted targets of the reagent. Not given: the amount of reagent, the time to read-out.

gene knocked down	dsRNA	calcium signal, replicate 1	calcium signal, replicate 2	retest calcium signal, replicate 1	retest calcium signal, replicate 2	Outcome
Pdk1	DRSC08682	84.7	118			inactive
Cyp4c3	DRSC16631	117	150			inactive
CG13168	DRSC06295	135	190			inactive
Aduk	DRSC16451	49.3	78.3			active
CG14007	DRSC02339	113	105			inactive
Khc	DRSC07448	74.2	177			active
CG17219	DRSC00486	56.9	86.7			active
CG6996	DRSC10758	91.6	93.5			inactive
Acp53C14a	DRSC07224	156	137			inactive
CG17490	DRSC03794	155	7989			inactive
CG17490	DRSC03797	66.2	126			inactive
bdl	DRSC00271	135	247			inactive
wam	DRSC15171	200	121			inactive
CG31678	DRSC02618	99	98.3			inactive
CG31678	DRSC02619	71.2	145			inactive
Mitf	DRSC17212	123	164			inactive
Mitf	DRSC21056	62.2	114			inactive
Task6	DRSC16530	171	203			inactive
coil	DRSC07242	186	220			inactive
Tdh	DRSC11788	80.6	75.8			inactive
prtp	DRSC19804	138	91.3	6257	151	inactive
prtp	DRSC22494	116	185			inactive
mael	DRSC11894	102	77.5			inactive
Ir100a	DRSC14329	68.6	99.2	113	102	inactive
Clp	DRSC00746	110	147			inactive
orb2 + CG43783	DRSC10540	104	180			inactive
orb2 + CG43783	DRSC10541	97.2	76.8			inactive
orb2 + CG43783	DRSC10542	106	127			inactive
CG33127	DRSC00011	66.3	152			inactive
E23	DRSC00425	85.4	128			inactive
E23	DRSC00593	71.9	130			active
RpL28 + snoRNA:Or-CD12	DRSC08293	52.7	83.2			inactive
CG12607	DRSC08287	81.8	70.2			inactive
CG10914	DRSC06010	129	151			inactive
Notum	DRSC09959	82.8	131			inactive
Cpr66D	DRSC10640	110	89.8			inactive
Cpr66D	DRSC10646	86.2	76.7			inactive
Cpr66D	DRSC23178	104	122			inactive
TwdlP	DRSC14734	64.2	71.4			active
Ing5	DRSC03188	87.7	109			inactive
CG17715	DRSC11950	80.4	84.4			active
Or19b + Or19a	DRSC22604	112	187			inactive
CG5665	DRSC11783	68.5	105			active
Acyp2	DRSC15336	114	160			inactive
CG12730	DRSC17885	156	90.4			inactive
kumpel	DRSC14883	240	148			inactive
kumpel	DRSC16459	197	172			inactive
kumpel	DRSC16460	259	150			inactive
kumpel	DRSC16461	233	170			inactive
kumpel	DRSC16462	247	116			inactive
kumpel	DRSC16463	232	187			inactive
SF2	DRSC16845	107	234			inactive
TfIIEalpha	DRSC11303	90.1	82.8			inactive
TwdlT	DRSC16677	153	133			inactive
TwdlT	DRSC21540	166	121			inactive
Ir7e	DRSC18011	105	130			inactive
TwdlF	DRSC12225	138	83.6			inactive
Rrp40	DRSC00074	66	142			active
CNBP	DRSC04116	142	194			inactive
CNBP	DRSC04419	183	134	112	131	inactive
CNBP	DRSC21317	138	99.3			inactive
CG17572	DRSC02629	130	101			inactive
bero	DRSC03211	177	92.5			inactive
CG14330	DRSC14809	125	147			inactive
CG6304	DRSC02948	94.1	95.8			inactive
IFT20 + CG10395	DRSC22660	97.1	162			inactive
CG11257	DRSC06068	160	142			inactive
CG6040	DRSC15954	108	248			inactive
CG11369	DRSC17779	71.5	309			active
CG34444	DRSC06435	70.7	134			inactive
CG14088	DRSC10092	113	119			inactive
Cdep	DRSC12028					inactive
Cdep	DRSC12220	108	109			inactive
Cdep	DRSC12291	111	110			inactive
ProtA	DRSC03372	91	118			inactive
CG14071	DRSC02374	123	154			inactive
Echs1	DRSC06999	108	198			inactive
osk	DRSC17023	66.2	108			active
Atg4a	DRSC00656	141	326			inactive
Drep2	DRSC07528	221	119			inactive
CG12096	DRSC21692	218	73.5			inactive
Mfe2	DRSC19869	159	158			inactive
KaiR1D	DRSC15516	211	173			inactive

Entries listed so far whose gene name starts with M or m (4):
gene knocked down	dsRNA	calcium signal, replicate 1	calcium signal, replicate 2	retest calcium signal, replicate 1	retest calcium signal, replicate 2	Outcome
Mitf	DRSC17212	123	164			inactive
Mitf	DRSC21056	62.2	114			inactive
mael	DRSC11894	102	77.5			inactive
Mfe2	DRSC19869	159	158			inactive
